Results deposited as PubChem BioAssay AID504808 (Drosophila RNAi Screening Center, 2011)
Test: 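Chromatin factors that keep E2F targets switched off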 (primary screen). Cell system: Drosophila S2 cells. Reagents: long dsRNA against Drosophila genes. Read-out: 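Dual luciferase plate measurements; E2F-specific signal taken as firefly over Renilla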. Direction: E2F firefly: higher = more E2F reporter activity; Renilla normaliser: higher = more normaliser reporter signal. Rule for the call: 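a knock-down counted as active when the firefly/Renilla E2F signal rose above 50%, a threshold chosen arbitrarily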.
In all, the deposit lists about 21,000 reagents; this is an unselected part of those that have a named target and a result. Over the whole deposit, 18 (0.084%) got an active call. 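Raw counts without plate normalisation, one of two replicates; the ratio scores behind the calls were not deposited.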 The numbers tell different reagents against one gene apart. The record does not give: the amount of reagent, the time to read-out.

Target gene | reagent | E2F firefly, rep 1 | Renilla normaliser, rep 1 | Call
Arf1 | 1 | 72469 | 3408 | inactive
CG6685 | 1 | 1.27e5 | 6548 | inactive
by | 1 | 1.54e5 | 6635 | inactive
Tsp42Ek | 1 | 1.38e5 | 4737 | inactive
CG1146 | 1 | 67450 | 2951 | inactive
SP | 1 | 1.19e5 | 6506 | inactive
CG33758 | 1 | 1.39e5 | 6798 | inactive
CYTB (retired record) | 1 | 1.34e5 | 4891 | inactive
Jon66Ci | 1 | 99112 | 3976 | inactive
CG6966 | 1 | 1.10e5 | 6624 | inactive
Ptp61F | 1 | 89549 | 4541 | inactive
GABA-B-R2 | 1 | 82694 | 3597 | inactive
CG32643 | 1 | 95164 | 2800 | inactive
Odj | 1 | 58622 | 3029 | inactive
Cyp12c1 | 1 | 84448 | 3725 | inactive
Nep7 | 1 | 1.23e5 | 6536 | inactive
CG14200 | 1 | 76291 | 90 | inactive
ari-2 | 1 | 90109 | 4068 | inactive
RtGEF | 1 | 1.01e5 | 5179 | inactive
CG6983 | 1 | 80085 | 3813 | inactive
Mrm2 | 1 | 1.45e5 | 6401 | inactive
ntc | 1 | 75813 | 3299 | inactive
SdhCL | 1 | 1.41e5 | 6170 | inactive
Brd | 1 | 1.35e5 | 7118 | inactive
twz | 1 | 1.08e5 | 4936 | inactive
Hs3st-B | 1 | 1.45e5 | 5260 | inactive
ihog | 1 | 96239 | 4184 | inactive
Amyrel | 1 | 75893 | 3570 | inactive
l(3)76BDm | 1 | 75362 | 3257 | inactive
CG8117 | 1 | 1.46e5 | 6089 | inactive
CG14220 | 1 | 94891 | 4194 | inactive
RhoGAP15B | 1 | 1.54e5 | 5305 | inactive
RhoGAP15B | 2 | 2.55e5 | 8463 | inactive
Gsc | 1 | 1.66e5 | 6035 | inactive
